Assay results published in article PMC7516004, “RICE CENTRORADIALIS 1, a TFL1-like Gene, Responses to Drought Stress and Regulates Rice Flowering Transition”.
Construct, isoform or probe ends are uncertain for at least one entry. The comparison behind a weaker result is the experiment's own reference, which may not be listed here. Where a protein sequence is shown, tags need not be part of it.

These sequences were tested against T1, OSBZ8 (UniProt Q40645) (assay: EMSA). Conditions: Chemiluminescent Nucleic Acid Detection Module Kit (Thermo) per manufacturer; binding buffer, pH and temperature not stated; recombinant protein; protein details: His (pCold vector); label: biotin.
T1 sequence (looked up, limits assumed): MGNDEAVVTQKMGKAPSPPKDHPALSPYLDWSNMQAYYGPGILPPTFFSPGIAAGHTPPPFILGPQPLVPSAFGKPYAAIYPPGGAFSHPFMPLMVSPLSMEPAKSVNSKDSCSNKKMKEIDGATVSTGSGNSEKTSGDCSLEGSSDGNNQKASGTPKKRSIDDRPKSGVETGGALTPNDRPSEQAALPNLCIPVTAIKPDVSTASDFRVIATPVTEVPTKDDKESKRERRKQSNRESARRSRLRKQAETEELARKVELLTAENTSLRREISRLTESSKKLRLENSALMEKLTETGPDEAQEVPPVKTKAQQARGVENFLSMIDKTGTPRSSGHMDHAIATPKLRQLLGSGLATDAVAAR

Binding result, binds more weakly:
AATAAAAATGGTGGGACCCACGTGGGCCCCACAAGTCATTCT (double strand) [Probe 11]
AGGAAAAATGGTGGGACCCACGTGGGCCCCACATGTCATCCT (double strand) [Probe 14]
AGTCAAATTAGCCACGTAGGCGACACGTCAGCTAAAACCGC (double strand) [Probe 12]
TCTTCATCTGACGTGGCATTGATGTGGTGCTTACGTGGCACTTCGA (double strand) [Probe 10]
TGTGGTTTTGGCTGACGTGGCGCCTACGTGGCGAATTTGACTC (double strand) [Probe 9]
